Measured values taken from the supplement of paper PMC10849652.
This is one part of the list.

Protein sequences, listed by entry. Tags and fused reporters are not part of them. Lines headed by an entry give the natural chain unless they say otherwise; changes in a name come on top.
UniProt Q9UET6: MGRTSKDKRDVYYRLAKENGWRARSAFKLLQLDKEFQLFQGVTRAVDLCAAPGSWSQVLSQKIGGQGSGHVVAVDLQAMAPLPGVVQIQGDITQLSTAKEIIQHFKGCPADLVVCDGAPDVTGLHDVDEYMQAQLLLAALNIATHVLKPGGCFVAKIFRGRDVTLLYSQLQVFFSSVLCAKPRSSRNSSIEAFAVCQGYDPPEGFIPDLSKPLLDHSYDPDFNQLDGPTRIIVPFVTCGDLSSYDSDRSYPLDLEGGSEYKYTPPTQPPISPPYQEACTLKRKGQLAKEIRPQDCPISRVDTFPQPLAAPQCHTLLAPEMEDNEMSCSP
UniProt Q8NB37: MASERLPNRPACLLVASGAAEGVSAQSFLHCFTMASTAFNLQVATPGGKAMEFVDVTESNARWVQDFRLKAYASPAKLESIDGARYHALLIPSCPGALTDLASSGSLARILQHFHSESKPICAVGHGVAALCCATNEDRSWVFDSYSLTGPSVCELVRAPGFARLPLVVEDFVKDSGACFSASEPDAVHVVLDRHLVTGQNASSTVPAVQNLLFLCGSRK
UniProt Q8WXD5: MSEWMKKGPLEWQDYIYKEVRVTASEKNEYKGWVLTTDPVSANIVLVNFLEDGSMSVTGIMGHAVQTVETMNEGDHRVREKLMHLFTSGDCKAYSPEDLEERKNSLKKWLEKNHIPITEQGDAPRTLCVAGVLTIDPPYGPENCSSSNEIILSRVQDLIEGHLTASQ
UniProt P54803: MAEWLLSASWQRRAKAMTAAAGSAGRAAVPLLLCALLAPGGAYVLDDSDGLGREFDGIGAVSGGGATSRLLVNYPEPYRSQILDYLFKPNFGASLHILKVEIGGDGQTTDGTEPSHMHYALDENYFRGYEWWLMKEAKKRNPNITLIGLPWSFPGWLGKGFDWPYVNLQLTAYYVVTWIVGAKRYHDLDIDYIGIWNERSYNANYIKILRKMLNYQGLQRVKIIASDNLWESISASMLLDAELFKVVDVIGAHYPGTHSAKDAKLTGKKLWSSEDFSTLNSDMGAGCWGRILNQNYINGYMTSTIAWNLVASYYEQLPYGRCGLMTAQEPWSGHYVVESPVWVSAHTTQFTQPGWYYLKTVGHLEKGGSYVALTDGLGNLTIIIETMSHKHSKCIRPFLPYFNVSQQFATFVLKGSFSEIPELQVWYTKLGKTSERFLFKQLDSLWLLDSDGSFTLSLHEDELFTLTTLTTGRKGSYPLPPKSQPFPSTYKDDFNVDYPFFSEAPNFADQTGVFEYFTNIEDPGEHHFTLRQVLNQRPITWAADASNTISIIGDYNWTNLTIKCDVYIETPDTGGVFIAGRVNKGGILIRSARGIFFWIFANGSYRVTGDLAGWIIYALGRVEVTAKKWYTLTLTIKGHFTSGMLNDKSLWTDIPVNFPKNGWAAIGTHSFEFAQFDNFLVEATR
UniProt O75600: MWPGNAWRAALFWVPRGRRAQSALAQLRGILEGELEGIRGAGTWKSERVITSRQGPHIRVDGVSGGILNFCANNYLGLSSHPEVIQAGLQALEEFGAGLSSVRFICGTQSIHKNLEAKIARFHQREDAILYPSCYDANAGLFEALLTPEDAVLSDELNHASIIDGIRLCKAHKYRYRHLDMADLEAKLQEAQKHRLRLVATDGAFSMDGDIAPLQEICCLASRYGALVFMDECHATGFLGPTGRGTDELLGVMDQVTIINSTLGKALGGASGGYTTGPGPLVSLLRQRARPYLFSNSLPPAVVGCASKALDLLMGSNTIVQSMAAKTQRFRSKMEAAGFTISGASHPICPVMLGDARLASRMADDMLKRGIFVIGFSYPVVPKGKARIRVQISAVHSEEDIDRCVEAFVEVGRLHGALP
UniProt P04062: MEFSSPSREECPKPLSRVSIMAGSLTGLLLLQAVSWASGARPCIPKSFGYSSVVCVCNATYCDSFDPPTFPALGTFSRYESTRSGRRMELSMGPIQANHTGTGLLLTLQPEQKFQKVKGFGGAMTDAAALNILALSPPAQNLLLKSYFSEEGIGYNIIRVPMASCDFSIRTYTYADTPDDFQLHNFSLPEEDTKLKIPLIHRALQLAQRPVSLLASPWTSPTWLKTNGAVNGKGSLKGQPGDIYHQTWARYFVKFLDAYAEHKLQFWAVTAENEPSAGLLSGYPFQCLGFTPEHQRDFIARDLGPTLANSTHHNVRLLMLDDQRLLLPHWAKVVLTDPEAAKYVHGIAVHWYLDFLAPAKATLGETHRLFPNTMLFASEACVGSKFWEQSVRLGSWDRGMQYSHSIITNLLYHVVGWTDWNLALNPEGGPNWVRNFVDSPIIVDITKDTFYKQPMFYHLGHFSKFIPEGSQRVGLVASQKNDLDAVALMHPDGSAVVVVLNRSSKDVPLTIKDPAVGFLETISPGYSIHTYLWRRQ
UniProt O14976: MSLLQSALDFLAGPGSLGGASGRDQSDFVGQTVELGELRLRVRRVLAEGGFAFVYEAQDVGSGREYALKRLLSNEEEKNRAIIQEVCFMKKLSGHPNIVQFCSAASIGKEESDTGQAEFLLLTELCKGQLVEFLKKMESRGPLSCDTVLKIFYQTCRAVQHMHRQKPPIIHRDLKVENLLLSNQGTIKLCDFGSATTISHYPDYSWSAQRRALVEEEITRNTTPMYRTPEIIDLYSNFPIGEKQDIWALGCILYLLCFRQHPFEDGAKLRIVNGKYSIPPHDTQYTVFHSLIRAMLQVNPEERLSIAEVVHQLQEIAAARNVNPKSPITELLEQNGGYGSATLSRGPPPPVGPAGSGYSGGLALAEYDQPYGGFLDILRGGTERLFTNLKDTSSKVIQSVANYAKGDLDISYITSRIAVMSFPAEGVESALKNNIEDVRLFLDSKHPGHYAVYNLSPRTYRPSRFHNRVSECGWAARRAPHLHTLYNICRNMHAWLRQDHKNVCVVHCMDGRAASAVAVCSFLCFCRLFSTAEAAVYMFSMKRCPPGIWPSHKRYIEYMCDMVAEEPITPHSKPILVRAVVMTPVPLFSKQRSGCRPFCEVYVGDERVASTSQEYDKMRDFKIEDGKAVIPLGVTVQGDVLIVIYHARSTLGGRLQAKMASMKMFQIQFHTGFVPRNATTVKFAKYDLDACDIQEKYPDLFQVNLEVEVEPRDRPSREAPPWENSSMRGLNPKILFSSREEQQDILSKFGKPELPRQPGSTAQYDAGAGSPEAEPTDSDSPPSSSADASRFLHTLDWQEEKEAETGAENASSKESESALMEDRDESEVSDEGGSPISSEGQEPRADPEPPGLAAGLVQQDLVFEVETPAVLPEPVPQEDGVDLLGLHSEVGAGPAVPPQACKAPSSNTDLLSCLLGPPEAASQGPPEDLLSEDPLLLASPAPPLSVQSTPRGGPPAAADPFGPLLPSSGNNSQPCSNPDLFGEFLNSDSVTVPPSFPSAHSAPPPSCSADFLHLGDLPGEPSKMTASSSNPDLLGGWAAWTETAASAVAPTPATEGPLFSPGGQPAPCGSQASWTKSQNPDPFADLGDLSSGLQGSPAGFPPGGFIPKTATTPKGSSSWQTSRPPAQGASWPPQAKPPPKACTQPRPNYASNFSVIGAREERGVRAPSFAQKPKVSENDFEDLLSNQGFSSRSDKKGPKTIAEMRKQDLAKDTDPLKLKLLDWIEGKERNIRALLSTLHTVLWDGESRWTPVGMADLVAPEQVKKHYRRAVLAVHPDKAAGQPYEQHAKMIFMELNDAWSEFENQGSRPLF
UniProt Q8TB36: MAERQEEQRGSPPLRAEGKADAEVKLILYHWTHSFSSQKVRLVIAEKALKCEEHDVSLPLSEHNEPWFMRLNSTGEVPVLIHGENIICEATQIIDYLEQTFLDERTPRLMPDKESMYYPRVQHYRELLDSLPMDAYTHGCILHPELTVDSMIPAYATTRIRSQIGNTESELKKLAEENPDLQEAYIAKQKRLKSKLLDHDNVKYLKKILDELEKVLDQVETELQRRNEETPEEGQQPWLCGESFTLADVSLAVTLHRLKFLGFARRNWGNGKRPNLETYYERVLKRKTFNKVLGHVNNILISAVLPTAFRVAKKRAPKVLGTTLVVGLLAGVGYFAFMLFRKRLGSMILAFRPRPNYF
UniProt P48506: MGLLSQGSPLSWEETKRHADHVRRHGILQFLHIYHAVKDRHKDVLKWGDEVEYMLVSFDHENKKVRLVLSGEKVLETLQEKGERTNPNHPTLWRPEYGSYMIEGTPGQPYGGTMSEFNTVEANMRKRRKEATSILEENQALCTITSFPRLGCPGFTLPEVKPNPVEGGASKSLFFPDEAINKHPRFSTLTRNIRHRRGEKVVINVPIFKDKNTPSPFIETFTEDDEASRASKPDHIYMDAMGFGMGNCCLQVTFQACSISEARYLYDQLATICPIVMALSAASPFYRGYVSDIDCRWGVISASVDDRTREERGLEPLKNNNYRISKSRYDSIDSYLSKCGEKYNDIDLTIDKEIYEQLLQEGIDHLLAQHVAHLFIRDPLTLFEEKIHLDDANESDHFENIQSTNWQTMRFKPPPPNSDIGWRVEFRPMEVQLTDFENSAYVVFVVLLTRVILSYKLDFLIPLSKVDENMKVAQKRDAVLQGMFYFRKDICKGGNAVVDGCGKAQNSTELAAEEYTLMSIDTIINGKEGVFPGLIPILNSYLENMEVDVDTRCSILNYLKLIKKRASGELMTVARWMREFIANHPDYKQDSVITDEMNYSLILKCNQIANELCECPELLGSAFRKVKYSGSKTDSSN
UniProt Q06210: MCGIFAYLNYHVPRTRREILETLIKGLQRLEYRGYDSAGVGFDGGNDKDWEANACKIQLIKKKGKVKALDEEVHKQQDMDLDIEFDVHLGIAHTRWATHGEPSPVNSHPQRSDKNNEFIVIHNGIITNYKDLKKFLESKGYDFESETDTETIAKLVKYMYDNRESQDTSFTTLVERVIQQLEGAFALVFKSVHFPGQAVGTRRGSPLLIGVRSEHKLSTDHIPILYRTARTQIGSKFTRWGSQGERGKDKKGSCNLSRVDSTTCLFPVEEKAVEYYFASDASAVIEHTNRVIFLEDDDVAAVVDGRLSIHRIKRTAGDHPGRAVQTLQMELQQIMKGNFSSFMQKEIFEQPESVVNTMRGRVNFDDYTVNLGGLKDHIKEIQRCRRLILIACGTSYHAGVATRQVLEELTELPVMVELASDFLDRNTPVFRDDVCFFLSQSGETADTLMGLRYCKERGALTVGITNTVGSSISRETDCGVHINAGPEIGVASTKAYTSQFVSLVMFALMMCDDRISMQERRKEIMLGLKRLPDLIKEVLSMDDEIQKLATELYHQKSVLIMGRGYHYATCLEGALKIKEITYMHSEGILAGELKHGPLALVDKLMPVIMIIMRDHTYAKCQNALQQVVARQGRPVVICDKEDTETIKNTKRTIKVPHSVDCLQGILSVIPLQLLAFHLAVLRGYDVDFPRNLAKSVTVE
UniProt P51116, whole entry, looked up: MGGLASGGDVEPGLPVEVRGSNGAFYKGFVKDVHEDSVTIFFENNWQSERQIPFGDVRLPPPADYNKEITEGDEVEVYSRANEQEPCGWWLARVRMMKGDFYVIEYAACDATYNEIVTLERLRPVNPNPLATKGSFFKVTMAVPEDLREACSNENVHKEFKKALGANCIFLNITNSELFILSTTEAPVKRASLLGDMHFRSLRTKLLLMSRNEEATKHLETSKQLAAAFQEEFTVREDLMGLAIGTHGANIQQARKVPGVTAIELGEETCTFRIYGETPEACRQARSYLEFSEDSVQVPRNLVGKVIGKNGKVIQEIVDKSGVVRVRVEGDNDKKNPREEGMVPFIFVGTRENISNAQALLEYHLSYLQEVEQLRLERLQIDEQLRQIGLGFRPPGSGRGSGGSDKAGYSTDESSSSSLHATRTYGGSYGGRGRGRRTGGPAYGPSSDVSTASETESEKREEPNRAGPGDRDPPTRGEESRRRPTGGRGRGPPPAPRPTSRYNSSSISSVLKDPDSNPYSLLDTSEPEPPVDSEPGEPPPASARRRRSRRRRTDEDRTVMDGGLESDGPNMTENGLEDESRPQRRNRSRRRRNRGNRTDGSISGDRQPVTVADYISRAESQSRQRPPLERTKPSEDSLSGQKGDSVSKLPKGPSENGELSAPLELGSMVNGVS
UniProt Q9BTY2: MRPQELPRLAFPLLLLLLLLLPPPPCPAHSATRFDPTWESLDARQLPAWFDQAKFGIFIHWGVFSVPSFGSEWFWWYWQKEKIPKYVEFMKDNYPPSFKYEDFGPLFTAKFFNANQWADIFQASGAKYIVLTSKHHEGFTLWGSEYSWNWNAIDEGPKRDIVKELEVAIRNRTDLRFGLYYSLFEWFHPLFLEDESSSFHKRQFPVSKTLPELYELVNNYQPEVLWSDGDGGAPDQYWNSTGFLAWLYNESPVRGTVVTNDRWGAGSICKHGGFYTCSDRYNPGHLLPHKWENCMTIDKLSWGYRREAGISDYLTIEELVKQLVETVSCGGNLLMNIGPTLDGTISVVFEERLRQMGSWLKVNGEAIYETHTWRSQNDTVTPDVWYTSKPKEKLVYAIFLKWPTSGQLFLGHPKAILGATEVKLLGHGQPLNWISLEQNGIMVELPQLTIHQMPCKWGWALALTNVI

Each target was assayed with CON(C)C(=O)N1N=C(c2cc(F)ccc2F)S[C@@]1(CCCN)c1ccccc1 [filanesib] (assay: log2 fold change, soluble protein after heating vs DMSO (PISA); higher = thermal stabilisation; K562 cells, 10 uM, 30 min; active = over 0.2 and 3.5 SD of the protein, either way, in both replicates (recomputed)).
In short: (§1)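 K562 cells (2×10^6 cells/mL) were treated with 10 μM compound for 30 min, and aliquots were heated for 3 min over 48°C-58°C. Pooled aliquots were extracted in PBS with 0.5% NP-40 at 4°C, and the supernatant after 21,000xg for 90 min was measured by TMTpro 16plex LC-MS/MS with channel sums equalised. Reported thermal stability, relative to control samples and from duplicates, is a log2 fold change.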

log2 fold change, inactive:
FUBP3 (UniProt Q96I24) 0.055
GART (UniProt P22102) -0.16
FUBP1 isoform 2 (UniProt Q96AE4) -0.016
FTSJ1 (UniProt Q9UET6) -0.124
GANAB isoform 2 (UniProt Q14697) 0.038
GATD1 (UniProt Q8NB37) 0.022
GEMIN6 (UniProt Q8WXD5) 0.005
GGPS1 (UniProt O95749) 0.013
GABPA (UniProt Q06546) -0.111
FRRS1 (UniProt Q6ZNA5) -0.019

Each target was assayed with CO[C@H]1C[C@@H]2CC[C@@H](C)[C@@](O)(O2)C(=O)C(=O)N2CCCC[C@H]2C(=O)O[C@H]([C@H](C)C[C@@H]2CC[C@H](n3cnnn3)[C@H](OC)C2)CC(=O)[C@H](C)/C=C(\C)[C@@H](O)[C@@H](OC)C(=O)[C@H](C)C[C@H](C)/C=C/C=C/C=C/1C [zotarolimus] in the same assay as above.
In short: as §1

log2 fold change, inactive:
GALE (UniProt Q14376) 0.003
GALC (UniProt P54803) -0.071
GCAT isoform 2 (UniProt O75600) 0.04
GBA (UniProt P04062) -0.052
GATA1 (UniProt P15976) -0.05
GGNBP2 (UniProt Q9H3C7) 0.195
GALNS (UniProt P34059) 0.02
GHITM (UniProt Q9H3K2) -0.035
GATAD2A isoform 3 (UniProt Q86YP4) 0.023
GAK (UniProt O14976) 0.033
FSCN1 (UniProt Q16658) 0.008
GADD45GIP1 (UniProt Q8TAE8) 0.006
GART (UniProt C9JZG2) -0.052
GCN1 (UniProt Q92616) 0.135
GABARAPL1 isoform 2 (UniProt Q9H0R8) 0.024
FRG1 (UniProt Q14331) -0.017
GDAP1 (UniProt Q8TB36) -0.004
GCLC (UniProt P48506) -0.021
G3BP2 (UniProt Q9UN86) 0.014
GFPT1 (UniProt Q06210) 0.015
FUT11 (UniProt Q495W5) -0.067
FXR2 (UniProt P51116) 0.119
FUCA2 (UniProt Q9BTY2) -0.019
FUBP3 (UniProt Q96I24) -0.072
GART (UniProt P22102) 0.068
FUBP1 isoform 2 (UniProt Q96AE4) -0.03
FTSJ1 (UniProt Q9UET6) 0.006
GANAB isoform 2 (UniProt Q14697) 0.052
GATD1 (UniProt Q8NB37) -0.004
GEMIN6 (UniProt Q8WXD5) 0.154
GGPS1 (UniProt O95749) -0.023
GABPA (UniProt Q06546) 0.063
FRRS1 (UniProt Q6ZNA5) -0.027
